Results taken from publication PMC12274614, “Scavenger receptor CD163 multimerises to allow uptake of diverse ligands” (Nature Communications, 2025).
No constants are given. Whether binding was seen depends on the method and setting.

Sequences of proteins named here, by UniProt entry; tags and fusion partners are left off. A change or cut given only in a name is not applied to a line headed by its entry. A line that says so, or that is headed by a name, gives the form on record, which may keep a tag or linker. Residues count along the entry.
CD163 ectodomain (CD163-WT) (Q86VB7, residues 46-1050): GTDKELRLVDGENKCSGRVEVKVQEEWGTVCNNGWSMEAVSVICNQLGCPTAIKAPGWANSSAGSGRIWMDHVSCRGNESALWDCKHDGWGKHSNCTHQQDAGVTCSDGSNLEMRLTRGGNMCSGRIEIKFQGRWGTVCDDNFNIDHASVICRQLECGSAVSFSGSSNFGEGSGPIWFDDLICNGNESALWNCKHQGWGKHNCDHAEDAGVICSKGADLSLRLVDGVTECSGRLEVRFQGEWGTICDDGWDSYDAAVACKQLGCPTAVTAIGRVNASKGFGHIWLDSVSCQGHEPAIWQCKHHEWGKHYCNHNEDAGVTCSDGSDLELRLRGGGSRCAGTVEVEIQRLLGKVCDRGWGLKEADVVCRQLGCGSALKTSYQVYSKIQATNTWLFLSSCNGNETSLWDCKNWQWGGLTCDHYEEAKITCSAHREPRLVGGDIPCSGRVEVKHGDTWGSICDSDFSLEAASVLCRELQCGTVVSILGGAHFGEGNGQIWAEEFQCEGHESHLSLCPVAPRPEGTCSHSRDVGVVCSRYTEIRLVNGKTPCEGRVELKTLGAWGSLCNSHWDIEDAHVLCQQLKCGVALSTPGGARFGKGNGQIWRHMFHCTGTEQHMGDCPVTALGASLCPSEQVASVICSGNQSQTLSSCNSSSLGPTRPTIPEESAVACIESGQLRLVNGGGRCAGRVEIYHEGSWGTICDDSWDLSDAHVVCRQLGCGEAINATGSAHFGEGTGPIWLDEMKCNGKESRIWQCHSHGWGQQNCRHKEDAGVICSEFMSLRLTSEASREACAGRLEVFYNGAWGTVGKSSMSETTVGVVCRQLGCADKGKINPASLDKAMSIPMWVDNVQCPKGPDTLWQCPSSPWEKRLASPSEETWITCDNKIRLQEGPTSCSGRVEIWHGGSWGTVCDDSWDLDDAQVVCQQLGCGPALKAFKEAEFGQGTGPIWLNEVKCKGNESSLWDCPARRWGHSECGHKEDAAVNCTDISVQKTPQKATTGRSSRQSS
CD163-R809T-BAP (monomeric CD163 ectodomain) (Q86VB7-1, form named): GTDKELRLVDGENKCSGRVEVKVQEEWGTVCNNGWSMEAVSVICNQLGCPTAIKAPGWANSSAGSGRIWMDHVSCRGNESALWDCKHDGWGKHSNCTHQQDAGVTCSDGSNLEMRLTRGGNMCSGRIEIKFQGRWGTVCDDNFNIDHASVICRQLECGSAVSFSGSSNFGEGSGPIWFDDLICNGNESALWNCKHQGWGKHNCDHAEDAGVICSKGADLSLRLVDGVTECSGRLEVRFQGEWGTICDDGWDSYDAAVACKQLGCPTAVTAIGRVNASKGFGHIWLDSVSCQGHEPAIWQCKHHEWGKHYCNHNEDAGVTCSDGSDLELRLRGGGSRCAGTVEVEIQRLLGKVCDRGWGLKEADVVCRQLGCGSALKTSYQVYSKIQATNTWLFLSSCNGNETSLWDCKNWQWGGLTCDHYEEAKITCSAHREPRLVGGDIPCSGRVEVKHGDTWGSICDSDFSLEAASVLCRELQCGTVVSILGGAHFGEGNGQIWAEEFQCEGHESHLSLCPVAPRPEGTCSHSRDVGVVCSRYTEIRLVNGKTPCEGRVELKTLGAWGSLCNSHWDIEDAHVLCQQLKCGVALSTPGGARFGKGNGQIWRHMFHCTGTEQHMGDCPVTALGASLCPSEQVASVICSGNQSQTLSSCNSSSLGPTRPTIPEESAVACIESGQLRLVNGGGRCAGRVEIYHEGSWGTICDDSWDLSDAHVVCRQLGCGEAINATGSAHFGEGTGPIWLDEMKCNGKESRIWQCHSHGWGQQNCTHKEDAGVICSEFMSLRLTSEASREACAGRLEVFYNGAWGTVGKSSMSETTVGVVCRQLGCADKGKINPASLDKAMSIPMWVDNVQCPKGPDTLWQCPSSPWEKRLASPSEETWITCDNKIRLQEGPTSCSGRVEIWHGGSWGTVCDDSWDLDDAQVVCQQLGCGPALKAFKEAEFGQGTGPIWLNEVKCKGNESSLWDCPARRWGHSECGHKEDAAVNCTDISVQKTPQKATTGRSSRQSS

Tests used:
[1] = molecular target: CD163-R809T-BAP (monomeric CD163 ectodomain) (human) (UniProt Q86VB7); assay: SEC-MALLS; CD163-WT (3.47-24.2 μM monomer) or CD163-R809T-BAP (3.41 or 24.2 μM) alone, Superose 6, HBS pH 7.5 with […] calcium, room temperature; both purified
[2] = molecular target: CD163 ectodomain (CD163-WT) (human) (UniProt Q86VB7); assay: SEC-MALLS; 3.47 μM CD163-WT with 1.18 μM Hp(1-1)Hb, HBS pH 7.5 without calcium, room temperature; both purified
[3] = molecular target: CD163 ectodomain (CD163-WT) (human) (UniProt Q86VB7); assay: SEC-MALLS; 3.47 μM CD163-WT with 1.18 μM Hp(1-1)Hb, MBS pH 6.0 (20 mM MES), or MBS with […] CaCl2, room temperature; both purified
[4] = molecular target: CD163 ectodomain (CD163-WT) (human) (UniProt Q86VB7); assay: condition: only with […] MgCl2 in place of CaCl2; SEC-MALLS; 3.47 μM CD163-WT with 1.18 μM Hp(1-1)Hb, HBS pH 7.5 with […] MgCl2 in place of CaCl2, room temperature; both purified

binding [1]	binding [3]	binding [4]	Substance	binding [2]
no binding (tested: 24.2 μM)			CD163-R809T-BAP (monomeric CD163 ectodomain) (from UniProt Q86VB7-1 46-1050) (domain or fragment)	
	no binding (condition: at pH 6)	no binding	CD163 ectodomain (CD163-WT) (from UniProt Q86VB7-1 46-1050) (domain or fragment)	no binding (condition: in the absence of calcium)
